Patent US20030028924A1
These are yes or no findings as the source states them, for the method shown. Some entries that bind do so weakly or less than the wild type.

Amino acid sequences for entries named in this document (tags omitted). A change or cut given only in a name is not applied to a line headed by its entry.
UniProt P04386: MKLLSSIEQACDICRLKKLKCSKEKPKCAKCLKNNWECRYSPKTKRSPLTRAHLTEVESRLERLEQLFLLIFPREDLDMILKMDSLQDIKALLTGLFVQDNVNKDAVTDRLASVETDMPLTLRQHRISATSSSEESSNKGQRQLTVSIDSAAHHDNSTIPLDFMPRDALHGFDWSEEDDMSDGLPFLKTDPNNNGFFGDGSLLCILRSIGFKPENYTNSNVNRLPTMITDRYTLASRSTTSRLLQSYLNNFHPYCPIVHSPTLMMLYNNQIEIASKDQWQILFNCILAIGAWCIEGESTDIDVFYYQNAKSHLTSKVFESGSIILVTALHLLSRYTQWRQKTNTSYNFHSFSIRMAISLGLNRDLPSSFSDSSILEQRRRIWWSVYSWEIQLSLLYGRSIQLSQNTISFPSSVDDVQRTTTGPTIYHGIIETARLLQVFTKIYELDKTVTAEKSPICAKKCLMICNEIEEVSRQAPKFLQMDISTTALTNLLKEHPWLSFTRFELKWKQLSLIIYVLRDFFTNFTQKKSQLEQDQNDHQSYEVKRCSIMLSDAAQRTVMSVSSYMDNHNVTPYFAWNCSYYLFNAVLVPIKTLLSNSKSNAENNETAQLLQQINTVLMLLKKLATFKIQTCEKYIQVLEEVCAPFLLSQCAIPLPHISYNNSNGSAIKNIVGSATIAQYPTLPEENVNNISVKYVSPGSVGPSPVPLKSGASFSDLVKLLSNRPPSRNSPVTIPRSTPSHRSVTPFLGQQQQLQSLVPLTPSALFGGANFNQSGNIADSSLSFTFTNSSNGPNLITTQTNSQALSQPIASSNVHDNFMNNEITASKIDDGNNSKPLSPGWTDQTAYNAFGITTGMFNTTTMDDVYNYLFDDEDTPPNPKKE
UniProt P14712: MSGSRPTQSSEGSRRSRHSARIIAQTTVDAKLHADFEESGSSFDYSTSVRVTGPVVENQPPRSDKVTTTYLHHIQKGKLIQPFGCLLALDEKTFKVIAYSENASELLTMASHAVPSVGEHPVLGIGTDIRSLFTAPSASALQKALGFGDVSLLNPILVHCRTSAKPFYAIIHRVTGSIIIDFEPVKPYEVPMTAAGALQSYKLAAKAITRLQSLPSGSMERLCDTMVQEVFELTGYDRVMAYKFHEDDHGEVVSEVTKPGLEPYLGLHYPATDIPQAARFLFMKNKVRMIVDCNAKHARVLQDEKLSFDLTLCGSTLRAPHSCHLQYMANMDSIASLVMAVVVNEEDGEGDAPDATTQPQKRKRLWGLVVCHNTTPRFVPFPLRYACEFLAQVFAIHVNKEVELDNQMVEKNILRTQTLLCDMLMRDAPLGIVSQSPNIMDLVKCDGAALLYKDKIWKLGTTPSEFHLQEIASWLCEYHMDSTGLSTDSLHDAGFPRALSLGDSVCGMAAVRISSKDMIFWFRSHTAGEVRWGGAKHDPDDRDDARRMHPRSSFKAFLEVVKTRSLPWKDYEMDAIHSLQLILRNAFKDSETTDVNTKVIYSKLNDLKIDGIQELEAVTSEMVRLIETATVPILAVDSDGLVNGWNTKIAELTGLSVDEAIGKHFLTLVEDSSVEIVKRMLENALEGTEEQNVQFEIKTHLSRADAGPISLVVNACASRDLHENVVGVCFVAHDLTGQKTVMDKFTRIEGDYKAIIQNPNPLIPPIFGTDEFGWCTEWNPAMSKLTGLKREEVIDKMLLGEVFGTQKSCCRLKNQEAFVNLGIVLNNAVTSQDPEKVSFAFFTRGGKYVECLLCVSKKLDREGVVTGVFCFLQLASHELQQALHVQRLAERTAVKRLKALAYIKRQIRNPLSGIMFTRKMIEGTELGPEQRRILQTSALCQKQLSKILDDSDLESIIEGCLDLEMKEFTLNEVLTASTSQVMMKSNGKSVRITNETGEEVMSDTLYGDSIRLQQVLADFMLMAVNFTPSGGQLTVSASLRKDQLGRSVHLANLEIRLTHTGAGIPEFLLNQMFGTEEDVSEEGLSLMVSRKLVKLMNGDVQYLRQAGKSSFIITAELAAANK

Legend:
[1] = molecular target: T1, C-terminal domain (residues 667-1122) of Arabidopsis phytochrome A fused to the GAL4 DNA binding domain (bait, pGB-phyA in pGBT9) (Arabidopsis) (UniProt P04386+P14712); test: yeast two-hybrid screen, selection on SD lacking leucine/tryptophane/histidine with 20 mM aminotriazole
[2] = molecular target: T1, C-terminal domain (residues 667-1122) of Arabidopsis phytochrome A fused to the GAL4 DNA binding domain (bait, pGB-phyA in pGBT9) (Arabidopsis); test: yeast two-hybrid screen
[3] = molecular target: T1, C-terminal domain (residues 667-1122) of Arabidopsis phytochrome A fused to the GAL4 DNA binding domain (bait, pGB-phyA in pGBT9) (Arabidopsis); test: yeast two-hybrid screen, phyA C-terminal domain as bait, pea cDNA library as prey

Measured: binding

B1: PP2AC-JD, catalytic subunit of a pea protein phosphatase 2A, as the prey clone from the pea cDNA library in pAD-GAL4-2.1 (yeast two-hybrid) (enzyme, not shown: large carriers)
chain: MDLDQWISKVKDGQHLLEDELQLLCEYVKEILIEESNVQPVNSPVTVCGDIHGQFHDLMKLFQTGGHVPETNYIFMGDFVDRGYNSLDVFTILLLLKARYPANITLLRGNHESRQLTQVYGFYDECQRKYGNANATRYCTDVFDYLTLSAIIDGTVLCVHGGLSPDIRTIDQIRVIERNCEIPHEGPFCDLMWSDPEDIETWAVSPRGAGWLFGSRVTSEFNHINNLDLVCRAHQLVQEGLKYMFQDKGLVTVWSAPNYCYRCGNVASILSFNENMEREVKFFTETEENNQMRGPRTGVPYFL
binds: all assays above
